Results on 18 molecules are retold here after PMC10163288.

The other results are listed elsewhere or left out.

Sequences and labels used below:
B1: il10ra_site1_normal_mot_6792f2186577ebd01aa11eb855ed7b57_0001_af2_000000149_0001_1_16_H_._HHH_b1_00312_af2_0001_0000400012_0000002_0_af2pred_0001 (protein)
chain: SSSSSSDEEEELEELLEELEKTTDPREIREIYKEIVKLAREADDERARRKALEIFLELSSSSSSS
B2: il10ra_site1_normal_mot_HHH_b2_07440_af2_000000021_0001_1_18_H_._HHH_b1_03229_0001_0000400026_0000002_0 (protein)
chain: SSSSDEEHQEVLRLSREAFRLALRGNPEEARRVLEEAIEIAREIGDERALRMLEELLKTQSSSSS
B3: il10ra_site1_normal_mot_b26a303360aa2756ef5b79665ce52f45_0001_000000179_0001_1_11_H_._HHH_b2_07383_af2_0001_0000200017_0000001_0_af2pred_0001 (protein)
chain: SSSSDSREVVELIREALELLLEGDKEQAEEVLEEAREIAEELNNPLAEHLIELLLRHIRNSSSSS
B4: il10ra_site1_sap_25_mot_5aed09890fd46f02a60ca541bcb2e05a_0001_1_000000092_0001_15_31_H_._01923d483164837742cf829bee572cc5_0001_0001_0000100006_0000002_0_0001_af … (protein)
chain: SSSSDEELEERVEELLEEAKHVDERRLAHILARALRIAAENNNPELIRLVEKVAAELLLRSSSSS
B5: il10ra_site1_sap_15_mot_05ca327611f5605f0dd8494b449afcbf_0001_1_000000248_0001_35_51_H_._HHH_b1_05090_0001_0000300009_0000001_0_0001 (protein)
chain: SSSSSAEELVKEAATRIYELFRNGNPEEAEELAEEVRERLEELGNPQLANLIRVLLKLLKSSSSS
B6: il10ra_site1_normal_mot_HHH_b2_00943_af2_000000149_0001_1_17_H_._HHH_b1_00387_0001_0000600017_0000002_0 (protein)
chain: SSSSDLAELLLRQALKALRNAGDEEAVRRVEEIIEEYEEKGDERLLQEALRLAVELAQEELSSSS
B7: il10ra_site1_sap_15_mot_HHH_b2_02053_af2_000000006_0001_3_19_H_._HHH_b2_05903_0001_0000800036_0000001_0_0001_af2pred_0001 (protein)
chain: SSSSSSDRDERAVRLLLRAAKLVEDEELVKAALRLAEQVARAAGDEEAEKLVEEVKEELSSSSSS
B8: il10ra_site1_sap_15_mot_HHH_b2_08265_af2_000000206_0001_22_38_H_._HHH_b2_03204_af2_0001_0000100004_0000001_0_0001 (protein)
chain: SSDDMLAQAIIHYARAMLENGLIDEEEAEEIIRLAEEASEKDDEELIVEVARLLAEVIRKVATSS
B9: il10ra_site1_normal_mot_HHH_b1_06994_000000193_0001_40_55_H_._HHH_b2_08260_0001_0000200016_0000001_0 (protein)
chain: SSSSSSDEVEELAEEARRLAEEEGDEERAELVEAALRFYEQVGSEFFRESLRFLLEALSSSSSSS
B10: il10ra_site1_sap_34_mot_HHH_b1_06762_000000027_0001_42_56_H_._HHH_b1_03748_af2_0001_0000600013_0000001_0_0001_af2pred_0001 (protein)
chain: SSSSDSTERLLELIRRARELLENGNPEEAREVLEEAREIAEENNDYLTLELLRKLEEELESSSSS
B11: il10ra_site1_normal_mot_HHH_b2_01397_000000078_0001_23_39_H_._HHH_b1_01677_0001_0000100006_0000001_0 (protein)
chain: SSSSSSDERAVRRLLHAARDIEDPEYVELTLRFARALAEDTNNEELQELVERVEEELKSSSSSSS
B12: il10ra_site1_normal_mot_HHH_b1_05609_af2_000000134_0001_1_18_H_._HHH_b2_05432_0001_0000300041_0000001_1 (protein)
chain: SSSSDEEVIQEVLELLREIFRLLLRGNEEEAKRVLEEVKELAEKYNNEELERAVEIYEEAASSSS
B13: il10ra_site1_sap_16_mot_HHH_b1_06789_af2_000000041_0001_1_20_H_._HHH_b1_06879_af2_0001_0000300030_0000001_0_0001 (protein)
chain: SSSSSDNEEALRLSLEAFRLALRGDPEEARRVLEEALELAEEAGNERLARLIEDMLRLLSSSSSS
B14: il10ra_site1_sap_12_mot_HHH_b2_03425_000000200_0001_22_39_H_._HHH_b1_00059_0001_0000100004_0000001_0_0001 (protein)
chain: SSSSDEEREELEELIEELERLLKNGDPEEALRVAQRAIRLAFQLNDPELLRELWEVIKRNFSSSS
B15: il10ra_site1_sap_14_mot_a4073ed34bad1529e7d46a7d39fa26d0_0001_af2_000000058_0001_1_11_H_._HHH_b2_04068_0001_0000200015_0000001_0_0001 (protein)
chain: SSSSAEEIFEAVLEALRLAAERNDEEAFRELLELSIRWVERGDPELEEELEELAKEILERLSSSS
B16: il10ra_site1_normal_mot_HHH_b2_04945_000000076_0001_1_19_H_._HHH_b2_05056_0001_0000200011_0000002_0 (protein)
chain: SSSSTDELFEEVRRIIEEAVRLYREGNPEEARRLVEEALKEAEELNNLALVWSLEHLLRDLSSSS
B17: il10ra_site1_sap_24_mot_HHH_b2_00622_af2_000000153_0001_40_57_H_._1ad9cd31332199d645683f25bccb3f2f_0001_af2_0001_0000400010_0000001_0_0001 (protein)
chain: SSSSSDEEAEEQVEELLEEAKRIEDREEVLRLLIEANRIAFRAGNDELQREIWRVAQELSSSSSS
B18: il10ra_site1_sap_18_mot_HHH_b1_03273_000000263_0001_1_14_H_._HEEHE_2123_0001_0000200014_0000001_0_0001_af2pred_0001 (protein)
chain: SSSSSSNEEETHARALIFFAKYATNPDAARIALELAEEILEKLNNEELLKEVRRLLEELSSSSSS

The assay concerns the target il10ra, Q13651. The assay can be described thus: yeast display titration.
In the case of B1, the “apparent Kd” value was “inactive: no binding seen”. With B2 the entry was “inactive: no binding seen”; with B3, “inactive: no binding seen”; with B4, “inactive: no binding seen”. Regarding B5, the “apparent Kd” value is “inactive: no binding seen”. With B6 the entry was “inactive: no binding seen”; with B7, “inactive: no binding seen”. As to B8, the “apparent Kd” value was “inactive: no binding seen”.

Turning to B9, the “apparent Kd” value was “inactive: no binding seen”. With B10 the entry was “inactive: no binding seen”.

Turning to B11, the “apparent Kd” value is “inactive: no binding seen”. With B12 the entry was “inactive: no binding seen”. On to B13, for which the “apparent Kd” value was “inactive: no binding seen”.

B14: the “apparent Kd” value is “inactive: no binding seen”. With B15 the entry was “inactive: no binding seen”. To B16 belongs “inactive: no binding seen”; to B17, “inactive: no binding seen”.

With B18, the “apparent Kd” value is “inactive: no binding seen”.
